Data as given in PubChem BioAssay AID686943 (Drosophila RNAi Screening Center, 2013)

Test: 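Search across the genome for regulators of signalling from receptor tyrosine kinase to ERK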 (primary screen)
Cell system: Drosophila S2R+ haemocyte-like cells expressing YFP-tagged ERK (Rolled)
Knock-down reagent: long dsRNA against Drosophila genes
Treatment: insulin stimulation versus unstimulated cells; dose and duration not given
Measured: 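Antibody staining for doubly phosphorylated ERK divided by ERK-YFP signal, as plate z-scores, in insulin-treated and untreated cells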
Direction: replicate 1, z-score of dpERK with insulin and replicate 2, z-score of dpERK with insulin: higher = more active ERK per ERK-YFP after insulin; replicate 1, z-score of dpERK under basal conditions: higher = more basal active ERK per ERK-YFP; replicate 1, z-score of ERK-YFP with insulin: higher = more YFP-tagged ERK signal
The screen tested about 23,000 reagents; below is a random part of those with a known target gene and a result. 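Extra replicates exist only for a retested subset of genes; insulin dose and duration not given; both raised and lowered dpERK matter.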 Not stated in the record: the amount of reagent, the time to read-out.

gene	PubChem SID	replicate 1, z-score of dpERK with insulin	replicate 2, z-score of dpERK with insulin	replicate 1, z-score of dpERK under basal conditions	replicate 1, z-score of ERK-YFP with insulin
CG43059	SID104188708	0.33	0.32	0.28	0.14
CG17683	SID104200952	0.18	-0.01	-0.01	0.17
CR46300 (pseudo)	SID104192259	-0.25	1.7	-0.28	0.41
CG33702	SID104188778	0.24	-0.16	-0.18	0.35
CG7990	SID104199088	-0.22	0.37	0.58	0.12
CG7990	SID104199861	0.38	0.84	-2.22	0.74
Tlk (Tousled-like kinase)	SID104197073	-0.32	-1.18	0.35	0.17
Tlk (Tousled-like kinase)	SID104197523	0.08	0.28	-0.92	-0.83
Tlk (Tousled-like kinase)	SID104197627	-3.82	-3.66	-0.79	-0.82
Tlk (Tousled-like kinase)	SID104202281	-0.11	0.74	0.94	-1.59
Tlk (Tousled-like kinase)	SID104202283	0.58	-0.33	1.89	-3.32
Tlk (Tousled-like kinase)	SID104202295	0.57	-0.29	0.05	-0.02
MBD-R2	SID104193972	-1.19	-1.54	-1.4	2.51
CG43117	SID104193559	1.33	0.28	0.2	-0.12
CG9459	SID104196288	1.01	0.75	-0.07	0.2
Snx1 (Sorting nexin 1)	SID104180323	0.44	-0.62	-0.24	0.67
CG13250	SID104191490	0.44	0.36	-0.58	-0.68
esn (espinas)	SID104184831	-1.15	-0.82	-0.38	-0.35
esn (espinas)	SID104185973	-0.84	0	0.21	1.99
esn (espinas)	SID104187404	1.97	0.23	0.3	-0.42
CG14221	SID104199370	0.25	0.57	-0.21	-0.01
prom (prominin)	SID104184476	0.02	-0.21	1.1	-0.32
prom (prominin)	SID104201201	0.94	0.33	-0.26	1.14
prom (prominin)	SID104201658	2.65	0.79	-0.69	0.81

Next part, starting with the last 2 of the part before.
gene	PubChem SID	replicate 1, z-score of dpERK with insulin	replicate 2, z-score of dpERK with insulin	replicate 1, z-score of dpERK under basal conditions	replicate 1, z-score of ERK-YFP with insulin
prom (prominin)	SID104201201	0.94	0.33	-0.26	1.14
prom (prominin)	SID104201658	2.65	0.79	-0.69	0.81
MFS14 (Major Facilitator Superfamily Transporter 14)	SID104186316	0.99	0.33	-0.28	-0.53
CG42238	SID104182972	0.21	0.4	-0.65	-0.25
Herp (Homocysteine-induced endoplasmic reticulum protein)	SID104182186	-0.03	-0.49	3.06	0.22
HP1c (Heterochromatin Protein 1c)	SID104195958	-0.06	-0.16	-0.18	0.19
CG14142	SID104189937	-0.78	0.28	-0.79	1.02
Abca3 (ATP binding cassette subfamily A member 3)	SID104200338	0.56	0.07	0.53	1.14
CG7384	SID104182845	0.18	-1.99	-0.09	-0.03
CG7290	SID104190592	-0.73	-0.36	-0.11	0.29
CG13917	SID104188178	0.99	1.58	0.02	-0.15
CG17261	SID104180290	-0.79	-0.67	-0.24	-0.99
Cht4 (Chitinase 4)	SID104184395	-0.91	-1.2	-1.45	1.58
GstT4 (Glutathione S transferase T4)	SID104199549	-0.49	-0.68	-1.26	0.87
HSPC300 (Haematopoietic stem/progenitor cell protein 300)	SID104202239	0.13	0.31	2.32	-0.29
Ugt36A1 (UDP-glycosyltransferase family 36 member A1)	SID104180540	0.47	0.45	-0.45	1.15
Caper	SID104181929	1.33	-0.2	0.96	-0.65
CASK	SID104194380	-0.14	-0.39	0.12	-0.16
CASK	SID104196389	0.68	0.76	0.03	0
CASK	SID104196390	-0.35	0.13	0.72	0.42
CASK	SID104201541	0.53	0.04	-0.58	-0.29
Pi3K68D (Phosphatidylinositol 3-kinase 68D)	SID104191045	-0.25	-0.15	-0.09	-0.37
Arpc1 (Actin-related protein 2/3 complex, subunit 1)	SID104183230	-0.81	-0.71	-1.46	0.22
CG32679	SID104197436	1.13	0.77	2.35	-0.06
p38b (p38b MAP kinase)	SID104183378	1.08	0.68	1.2	0.18
ome (omega)	SID104189114	0.34	0.42	-0.62	0.25
ome (omega)	SID104190074	-2.54	-0.06	-0.62	0.09
ome (omega)	SID104191172	0.3	0.6	0.1	0.1
Vha55 (Vacuolar H[+]-ATPase 55kD subunit)	SID104196688	-1.05	-0.21	-0.45	-2.08
HERC2 (HECT and RLD domain containing protein 2)	SID104200358	0.75	0.76	-0.36	0.49
TfIIFbeta (Transcription factor TFIIFbeta)	SID104196676	0.54	0.44	0.1	0.06
TfIIFbeta (Transcription factor TFIIFbeta)	SID104201189	1.37	0.34	0.13	-3.04
CG9813	SID104196361	-0.96	0.2	-0.83	-0.48
CG31789	SID104181437	0.82	0.71	1.32	-1.2
CG11380	SID104198424	-3.64	-1.97	-2.44	0.19
